Assay results as given in patent US20060094002A1 (priority 2002, published 2006).
At least one compound was matched to its structure with a doubt left.

Tested on: Fungi transformed with aequorin gene
Assay: Effect of mycotoxins on [Ca2+]c in fungi transformed with aequorin gene
Format: cell-based
Settings: FIG. 20

CC(=O)C1=C(O)[C@@H]2[C@H]3c4c[nH]c5cccc(c45)C[C@H]3C(C)(C)N2C1=O [cyclopiazonic acid (CPA), cyclopiazonic acid]
effect on [Ca^2+]c: affect [Ca^2+]c
